# At least one compound was matched to its structure with a doubt left.
# Assay: Particle size by laser light diffraction (Microtrac S3000)
# Type: physicochemical
# Details: triamcinolone acetonide substance used in the compositions
compound,measurement,value
CC1(C)O[C@@H]2C[C@H]3[C@@H]4CCC5=CC(=O)C=C[C@]5(C)[C@@]4(F)[C@@H](O)C[C@]3(C)[C@]2(C(=O)CO)O1 [triamcinolone acetonide],mean volume particle size,5-6 μm

# From US8128960B2, “Low viscosity, highly flocculated triamcinolone acetonide suspensions for intravitreal injection” (Alcon Research, Ltd., priority 2008, dated 2012)
